Test results from US6528284.
No constants are given. Whether binding was seen depends on the method and setting. Some entries that bind do so weakly or less than the wild type.

By UniProt entry, the sequences of proteins in these tests, tags left out. Where a name states a change or a piece, a line headed by the entry shows the natural chain unless it says otherwise. Residues count along the entry.
UniProt P11103, residues 2-1013: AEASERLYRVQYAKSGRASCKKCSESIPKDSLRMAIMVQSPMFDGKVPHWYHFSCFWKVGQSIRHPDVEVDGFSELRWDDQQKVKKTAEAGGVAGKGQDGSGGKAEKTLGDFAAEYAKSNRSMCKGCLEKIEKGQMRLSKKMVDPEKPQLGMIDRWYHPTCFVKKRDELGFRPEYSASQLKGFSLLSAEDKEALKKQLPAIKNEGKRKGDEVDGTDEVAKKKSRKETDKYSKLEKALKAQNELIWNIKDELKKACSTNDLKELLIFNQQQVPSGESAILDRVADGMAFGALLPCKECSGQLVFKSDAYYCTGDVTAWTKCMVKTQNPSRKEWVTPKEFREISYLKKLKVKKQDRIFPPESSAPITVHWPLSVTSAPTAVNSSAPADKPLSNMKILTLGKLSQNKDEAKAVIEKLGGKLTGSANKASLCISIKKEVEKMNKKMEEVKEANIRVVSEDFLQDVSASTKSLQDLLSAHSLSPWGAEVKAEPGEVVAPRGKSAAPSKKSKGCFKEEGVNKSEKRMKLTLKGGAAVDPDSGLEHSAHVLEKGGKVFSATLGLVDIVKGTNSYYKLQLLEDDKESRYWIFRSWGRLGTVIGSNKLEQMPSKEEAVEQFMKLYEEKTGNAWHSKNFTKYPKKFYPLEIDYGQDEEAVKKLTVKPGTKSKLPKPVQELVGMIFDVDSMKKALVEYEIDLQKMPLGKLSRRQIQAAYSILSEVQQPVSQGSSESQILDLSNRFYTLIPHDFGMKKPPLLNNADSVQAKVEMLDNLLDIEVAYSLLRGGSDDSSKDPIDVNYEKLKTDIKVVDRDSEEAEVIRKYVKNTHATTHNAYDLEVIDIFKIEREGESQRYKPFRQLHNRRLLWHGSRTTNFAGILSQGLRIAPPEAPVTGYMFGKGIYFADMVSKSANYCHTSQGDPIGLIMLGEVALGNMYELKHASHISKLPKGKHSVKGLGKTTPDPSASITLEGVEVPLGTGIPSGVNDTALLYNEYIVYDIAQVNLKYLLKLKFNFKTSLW
UniProt Q61937: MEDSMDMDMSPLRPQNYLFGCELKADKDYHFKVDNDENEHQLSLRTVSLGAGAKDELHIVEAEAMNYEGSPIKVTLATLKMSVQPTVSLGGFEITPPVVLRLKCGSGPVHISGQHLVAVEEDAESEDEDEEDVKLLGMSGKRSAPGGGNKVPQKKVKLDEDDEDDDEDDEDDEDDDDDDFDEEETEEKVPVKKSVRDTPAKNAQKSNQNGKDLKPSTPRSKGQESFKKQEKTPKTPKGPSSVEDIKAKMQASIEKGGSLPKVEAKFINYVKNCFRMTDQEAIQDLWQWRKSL
UniProt Q6A028: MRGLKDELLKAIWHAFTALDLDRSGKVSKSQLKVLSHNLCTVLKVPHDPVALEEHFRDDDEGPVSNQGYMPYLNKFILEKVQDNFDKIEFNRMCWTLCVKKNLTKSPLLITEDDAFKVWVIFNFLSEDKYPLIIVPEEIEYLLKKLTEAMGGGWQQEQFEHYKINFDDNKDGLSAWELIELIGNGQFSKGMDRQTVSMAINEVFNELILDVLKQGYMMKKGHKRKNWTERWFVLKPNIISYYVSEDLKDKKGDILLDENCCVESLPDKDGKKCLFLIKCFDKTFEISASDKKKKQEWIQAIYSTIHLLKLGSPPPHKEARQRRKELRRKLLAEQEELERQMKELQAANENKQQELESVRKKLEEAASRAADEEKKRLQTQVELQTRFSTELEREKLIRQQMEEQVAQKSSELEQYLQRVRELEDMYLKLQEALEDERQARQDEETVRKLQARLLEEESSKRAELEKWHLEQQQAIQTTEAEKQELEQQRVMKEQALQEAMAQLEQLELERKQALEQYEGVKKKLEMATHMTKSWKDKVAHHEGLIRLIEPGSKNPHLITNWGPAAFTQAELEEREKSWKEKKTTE

Key:
[1] = biological target: poly(ADP-ribose) polymerase (PARP), native protein from nuclear extract of switching B cells (UniProt P11103); assay: SRTA-70 affinity column, eluted fractions probed in Western blot with anti PARP antibody
[2] = biological target: poly(ADP-ribose) polymerase (PARP), native protein from nuclear extract of switching B cells (UniProt P11103); assay: affinity chromatography: His-SRTA-70 on sepharose beads, nuclear extract from switching B cells, ammonium sulfate step elution, Western blot
[3] = biological target: B23 (nucleophosmin), native protein from nuclear extract of switching B cells (UniProt Q61937); assay: as above
[4] = biological target: B23 (nucleophosmin), native protein from nuclear extract of switching B cells (UniProt Q61937); assay: SRTA-70 affinity column, eluted fractions probed in Western blot with anti B23 antibody

Measured: binding

His-tagged SRTA-70 (recombinant, expressed in E. coli from pQE-30, bound to sepharose beads) (from UniProt Q6A028 1-585)
binds: all assays above
